# Values of other authors in article PMC3946900 (Pharmaceutical research, 2013).
# Test system: P-gp (mdr1)
# Details: mouse, in vivo; cited from earlier work
smiles,measurement,value
CN1CC[C@]23c4c5ccc(O)c4O[C@H]2[C@@H](O)C=C[C@H]3[C@H]1C5 [Morphine],Brain Conc. Ratio mdr1(−/−)/mdr1(+/+),1.7
same,Liver Conc. Ratio mdr1(−/−)/mdr1(+/+),1.1
